For two molecules, binding results are on record in PMC11724288.

These are yes or no findings as the source states them, for the method shown. Some binding calls cover weakened binding; strength is not graded here.

Test [1] addresses T1, τ95 subunit of S. cerevisiae TFIIIC, C-terminally truncated at residue 593 (S. cerevisiae) (UniProt P32367).
T1 sequence: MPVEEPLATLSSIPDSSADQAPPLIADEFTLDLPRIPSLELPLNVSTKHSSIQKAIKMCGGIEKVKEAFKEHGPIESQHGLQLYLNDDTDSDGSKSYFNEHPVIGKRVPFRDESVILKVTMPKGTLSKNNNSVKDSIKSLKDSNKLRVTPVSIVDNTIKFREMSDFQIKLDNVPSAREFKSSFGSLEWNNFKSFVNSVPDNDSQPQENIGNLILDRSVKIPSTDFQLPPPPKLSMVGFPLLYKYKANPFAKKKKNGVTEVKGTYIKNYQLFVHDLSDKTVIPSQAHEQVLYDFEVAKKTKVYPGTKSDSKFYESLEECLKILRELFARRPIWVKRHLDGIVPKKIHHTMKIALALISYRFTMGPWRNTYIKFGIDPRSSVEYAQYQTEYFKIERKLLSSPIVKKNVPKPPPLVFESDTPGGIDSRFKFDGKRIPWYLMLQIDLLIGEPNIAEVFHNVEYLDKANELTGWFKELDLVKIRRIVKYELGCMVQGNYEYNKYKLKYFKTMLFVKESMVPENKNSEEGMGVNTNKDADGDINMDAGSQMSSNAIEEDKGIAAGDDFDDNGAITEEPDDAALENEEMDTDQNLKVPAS
Kind of test: cryo-EM structure; TFIIICΔtail with 85-bp or 120-bp tRNA^His DNA; 20 mM HEPES pH 8.0, 2 mM MgCl2, 5 mM DTT, 75-200 mM KCl (datasets 1-5); separate reconstructions of τA–DNA (3.65 Å) and τB–DNA (2.46 Å); both purified.

The target of test [2] is T2, τ91 subunit of S. cerevisiae TFIIIC (S. cerevisiae) (UniProt Q06339).
T2 sequence: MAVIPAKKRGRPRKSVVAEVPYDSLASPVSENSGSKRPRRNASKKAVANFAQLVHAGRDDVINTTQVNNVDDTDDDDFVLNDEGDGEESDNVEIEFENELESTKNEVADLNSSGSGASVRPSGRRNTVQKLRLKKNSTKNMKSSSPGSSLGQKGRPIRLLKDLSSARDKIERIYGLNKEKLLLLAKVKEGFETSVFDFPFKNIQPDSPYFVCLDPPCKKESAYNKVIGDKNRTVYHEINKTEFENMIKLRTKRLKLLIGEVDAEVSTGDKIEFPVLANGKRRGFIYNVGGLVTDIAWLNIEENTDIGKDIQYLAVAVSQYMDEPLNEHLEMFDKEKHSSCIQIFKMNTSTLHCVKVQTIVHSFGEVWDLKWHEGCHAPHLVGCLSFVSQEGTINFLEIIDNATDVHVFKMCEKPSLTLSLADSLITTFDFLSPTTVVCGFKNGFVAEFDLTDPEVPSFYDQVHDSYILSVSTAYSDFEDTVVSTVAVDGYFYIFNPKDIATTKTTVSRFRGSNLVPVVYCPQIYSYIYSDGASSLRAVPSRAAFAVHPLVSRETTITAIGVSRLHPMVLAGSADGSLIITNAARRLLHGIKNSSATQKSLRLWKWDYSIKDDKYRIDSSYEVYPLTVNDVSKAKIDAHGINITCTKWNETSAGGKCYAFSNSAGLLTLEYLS
The test is described as above.

B1: τ55 subunit of S. cerevisiae TFIIIC (protein, UniProt Q12415 1-435)
chain: MVVNTIYIARHGYRSNWLPEGPYPDPLTGIDSDVPLAEHGVQQAKELAHYLLSLDNQPEAAFASPFYRCLETVQPIAKLLEIPVYLERGIGEWYRPDRKPVIPVPAGYEILSKFFPGVISQEWDSTLTPNEKGETEQEMYMRFKKFWPLFIERVEKEYPNVECILLVTHAASKIALGMSLLGYDNPRMSLNENGDKIRSGSCSLDKYEILKKSYDTIDETDDQTSFTYIPFSDRKWVLTMNGNTEFLSSGEEMNWNFDCVAEAGSDADIKKRQMTKKTSSPIPEADDQTEVETVYISVDIPSGNYKERTEIAKSAILQYSGLETDAPLFRIGNRLYEGSWERLVGTELAFPNAAHVHKKTAGLLSPTEENETTNAGQSKGSSTANDPNIQIQEEDVGLPDSTNTSRDHTGDKEEVQSEKIYRIKERIVLSNVRPM
For B1, the binding result in test [1] is “binds”.

B2: τ60 subunit of S. cerevisiae TFIIIC (protein, UniProt Q12308 1-588)
chain: MKLLKDLLVDRKEFEDWKNNLTWARDGTLYLTTFPDISIGQPKYAKDINCNSKNLFHVKEFPLEFENKLDFELAQQNGLLNSQPVCYPRVCKPSPIDDWMAVLSNNGNVSVFKDNKMLTNLDSKGNLSSRTYHCFEWNPIESSIVVGNEDGELQFFSIRKNSENTPEFYFESSIRLSDAGSKDWVTHIVWYEDVLVAALSNNSVFSMTVSASSHQPVSRMIQNASRRKITDLKIVDYKVVLTCPGYVHKIDLKNYSISSLKTGSLENFHIIPLNHEKESTILLMSNKTSYKVLLEDELHVTADNIIAPYLEKKFKKWSTIWNEFNNYETTLVIHGISLSPDGYSIAIVYDMERVAFKYKIASEQSFNIMFAPLYHTWTISERAVGLAWYQTYQIYNQSLPKLPENFSMNKKLLNGNYPISLDFQSYLNALMKSEEMRIIMFLNMTIDKPSILSFLEALYEYAINKKSELTNSFDLACVLSIAAILKREAPIYNGTLLMKNSFLEETFNLESFTADPETVTSTTNNTWKRCGVTLLPILTTHVKICPVSKQRVIDIKRDDLNDYGWFTRGLLERFNEISVYCGTTLEVM
Consider B2, for which the binding entry in test [2] is “binds”.
